Results published in PubChem BioAssay AID587 (National Center for Advancing Translational Sciences (NCATS), 2007).
Hit rate of the full screen: of about 59,000 compounds, about 35 (0.06%) were called active. The shares of active, inactive and inconclusive entries below differ from those in the screen. Cut-off read from the data, not from the text of the source: active = max dye-equivalent concentration above about 10 nM; inconclusive = between about 1.1 nM and that limit; inactive = weaker than that.

Assay: qHTS Assay for Spectroscopic Profiling in Texas Red Spectral Region
Details: Compound fluorescence, Texas Red channel, 547/618 nm; stronger effect = higher value
From the text: NIH Molecular Libraries Screening Centers Network [MLSCN] NIH Chemical Genomics Center [NCGC] […] Occasionally, the artifactual effect may originate from the compound#s own spectral or other biophysical properties which generally tend to track its assay concentration. Pre-screening/profiling the library with respect to the compounds# spectral properties should help one exclude false positives early on. While the most informative fluorescent profiling data set is obtained by performing a full excitation and emission scan of each well by using a monochromator-based plate reader, such an approach is practical only on a very limited scale as scanning each well requires long time. An alternative approach, applied here, is to perform plate reader scans using selected excitation and emission wavelength pairs to generate a multidimensional relational database that correlates compound concentration and the respective relative fluorescence intensity at a given wavelength set. A standard curve of Texas Red (TR) present on each plate as six-point concentration series, was used to compute a normalized fluorescence response, termed dye-equivalent concentration, for each compound at each concentration.
NCGC Assay Protocol Summary: Buffer: 100 mM Tris buffer, pH 8.0 Dye standard plate: The wells in columns 1 through 4 of a Kalypsys polypropylene 1536-well compound plate were filled with standard solutions of fluorophore corresponding to the spectral region of interest. Solutions of TR were placed in the following wells: U1, V1: 3 mM, U2, V2: 300 uM, U3, V3: 30 uM, U4, V4: zero (DMSO), W1, X1: 3 uM, W2, X2: 900 nM, W3, X3: 300 nM, W4, X4: zero (DMSO). Assay Steps: Six uL of buffer were dispensed to 1536-well Greiner black plates. Compounds and dye standards (23 nL) were transferred via Kalypsys PinTool. The plates were incubated for 15 min at room temperature, and then read on ViewLux (Perkin-Elmer) High-throughput CCD imager using 547 nm and 618 nm excitation and emission filter set. Keywords: NIH Roadmap, MLSCN, MLI, MLSMR, qHTS, NCGC, Texas Red, Fluorescent Profiling.
For `Cc1sc(NC(=O)CN2CCN(c3ccccn3)CC2)c(C#N)c1C`, the max dye-equivalent concentration was inconclusive: 1.2 nM.
In the case of `Cc1cc2c(cc1C)NC(c1ccccn1)C1=C(CC(C)(C)CC1=O)N2` (stereo not drawn), the max dye-equivalent concentration is reported as inconclusive: 1.7 nM.
For `CCc1sc(C(=O)Nc2ccsc2C(=O)OC)cc1Br`, the max dye-equivalent concentration was inconclusive: 1.2 nM.
With `Cn1c(CNC(=O)Nc2cccc(Cl)c2)nnc1SCc1ccccc1` the max dye-equivalent concentration was inconclusive: 1.5 nM.
In the case of `Cc1cc2c3c(c1)C1(C(=O)N3C(C)(C)CC2C)C(C#N)=C(N)Oc2n[nH]c(C)c21` (stereo not drawn), the max dye-equivalent concentration is reported as inconclusive: 1.1 nM.
With `O=C(NCN1CCN(c2ccccc2F)CC1)c1ccccc1` the max dye-equivalent concentration was inconclusive: 1.1 nM.
For `O=C(Nc1cccc2nsnc12)c1ccc(F)cc1`, the max dye-equivalent concentration was inconclusive: 1.1 nM.
With `CCOc1ccc(C2C=C(c3ccccc3)Nc3ncnn32)cc1` (stereo not drawn) the max dye-equivalent concentration was “inactive”.
With `O=c1c(-c2cccs2)nc2cnc(N3CCOCC3)nc2n1-c1ccccc1` the max dye-equivalent concentration was “inactive”.
For `O=C1C=C(NCCN2CCOCC2)CC(c2ccccc2)C1` (stereo not drawn), the max dye-equivalent concentration was inconclusive: 1.7 nM.
For `CCOC(=O)C1CCN(Cc2nc3ccccc3c(=O)n2-c2ccc(OCC)cc2)CC1`, the max dye-equivalent concentration was inconclusive: 2.2 nM.
With `CCn1c(NCc2c[nH]c3ccccc23)nc2ccccc21` the max dye-equivalent concentration was inconclusive: 3.2 nM.
For `Cc1cc(=O)oc2cc(NC(=O)C3COc4ccccc4O3)ccc12` (stereo not drawn), the max dye-equivalent concentration was inconclusive: 1.3 nM.
In the case of `Cc1ccc(CN2CCN(Cc3ccc(C)o3)[C@@H](C)C2)o1`, the max dye-equivalent concentration is reported as inconclusive: 2.1 nM.
For `Fc1ccccc1CCNc1nnnn1-c1ccccc1`, the max dye-equivalent concentration was inconclusive: 1.8 nM.
With `COc1ccccc1C(=O)n1nc(-c2ccco2)nc1N` the max dye-equivalent concentration was inconclusive: 1.4 nM.
In the case of `COc1ccc(NC(=O)Cn2cnc3c(cnn3-c3ccc(C)c(C)c3)c2=O)c(OC)c1`, the max dye-equivalent concentration is reported as inconclusive: 1.6 nM.
For `COc1ccc(NC(=O)CSc2nnc(CNC(=O)c3ccco3)n2-c2ccccc2OC)cc1`, the max dye-equivalent concentration was inconclusive: 1.7 nM.
For `CN1CCN(c2ccc(Cl)cc2NC(=O)c2cccc(S(=O)(=O)N(C)C)c2)CC1`, the max dye-equivalent concentration was inconclusive: 1.3 nM.
In the case of `COc1cc(OC)c(C2CC(=O)N3CN(c4ccccc4C)CSC3=C2C#N)cc1OC` (stereo not drawn), the max dye-equivalent concentration is reported as inconclusive: 1.3 nM.
For `COC(=O)c1ccccc1S(=O)(=O)N(CCCN1CCOCC1)Cc1cccs1`, the max dye-equivalent concentration was inconclusive: 1.3 nM.
With `O=C(OC(C(=O)NCc1ccc2c(c1)OCO2)c1ccccc1F)c1ccco1` (stereo not drawn) the max dye-equivalent concentration was inconclusive: 1.8 nM.
In the case of `CCOc1cc(C2NC(=O)NC(O)(C(F)(F)F)C2C(=O)c2ccc(OC)cc2)ccc1O` (stereo not drawn), the max dye-equivalent concentration is reported as inconclusive: 1.7 nM.
